Test results published in article PMC7037221.
Where a chain is given by its changes, count along the chain named. No constants are given. Whether binding was seen depends on the method and setting. In cells and extracts the contact can be indirect. Some results given as binding are weak or reduced against the parent protein; the word gives no strength. For some of these results: Tags and fused reporters may be left off the sequences shown.

Chains of the proteins cited; added tags and fusions are not shown. Lines headed by an entry give the natural chain unless they say otherwise; changes in a name come on top.
UniProt Q149N8: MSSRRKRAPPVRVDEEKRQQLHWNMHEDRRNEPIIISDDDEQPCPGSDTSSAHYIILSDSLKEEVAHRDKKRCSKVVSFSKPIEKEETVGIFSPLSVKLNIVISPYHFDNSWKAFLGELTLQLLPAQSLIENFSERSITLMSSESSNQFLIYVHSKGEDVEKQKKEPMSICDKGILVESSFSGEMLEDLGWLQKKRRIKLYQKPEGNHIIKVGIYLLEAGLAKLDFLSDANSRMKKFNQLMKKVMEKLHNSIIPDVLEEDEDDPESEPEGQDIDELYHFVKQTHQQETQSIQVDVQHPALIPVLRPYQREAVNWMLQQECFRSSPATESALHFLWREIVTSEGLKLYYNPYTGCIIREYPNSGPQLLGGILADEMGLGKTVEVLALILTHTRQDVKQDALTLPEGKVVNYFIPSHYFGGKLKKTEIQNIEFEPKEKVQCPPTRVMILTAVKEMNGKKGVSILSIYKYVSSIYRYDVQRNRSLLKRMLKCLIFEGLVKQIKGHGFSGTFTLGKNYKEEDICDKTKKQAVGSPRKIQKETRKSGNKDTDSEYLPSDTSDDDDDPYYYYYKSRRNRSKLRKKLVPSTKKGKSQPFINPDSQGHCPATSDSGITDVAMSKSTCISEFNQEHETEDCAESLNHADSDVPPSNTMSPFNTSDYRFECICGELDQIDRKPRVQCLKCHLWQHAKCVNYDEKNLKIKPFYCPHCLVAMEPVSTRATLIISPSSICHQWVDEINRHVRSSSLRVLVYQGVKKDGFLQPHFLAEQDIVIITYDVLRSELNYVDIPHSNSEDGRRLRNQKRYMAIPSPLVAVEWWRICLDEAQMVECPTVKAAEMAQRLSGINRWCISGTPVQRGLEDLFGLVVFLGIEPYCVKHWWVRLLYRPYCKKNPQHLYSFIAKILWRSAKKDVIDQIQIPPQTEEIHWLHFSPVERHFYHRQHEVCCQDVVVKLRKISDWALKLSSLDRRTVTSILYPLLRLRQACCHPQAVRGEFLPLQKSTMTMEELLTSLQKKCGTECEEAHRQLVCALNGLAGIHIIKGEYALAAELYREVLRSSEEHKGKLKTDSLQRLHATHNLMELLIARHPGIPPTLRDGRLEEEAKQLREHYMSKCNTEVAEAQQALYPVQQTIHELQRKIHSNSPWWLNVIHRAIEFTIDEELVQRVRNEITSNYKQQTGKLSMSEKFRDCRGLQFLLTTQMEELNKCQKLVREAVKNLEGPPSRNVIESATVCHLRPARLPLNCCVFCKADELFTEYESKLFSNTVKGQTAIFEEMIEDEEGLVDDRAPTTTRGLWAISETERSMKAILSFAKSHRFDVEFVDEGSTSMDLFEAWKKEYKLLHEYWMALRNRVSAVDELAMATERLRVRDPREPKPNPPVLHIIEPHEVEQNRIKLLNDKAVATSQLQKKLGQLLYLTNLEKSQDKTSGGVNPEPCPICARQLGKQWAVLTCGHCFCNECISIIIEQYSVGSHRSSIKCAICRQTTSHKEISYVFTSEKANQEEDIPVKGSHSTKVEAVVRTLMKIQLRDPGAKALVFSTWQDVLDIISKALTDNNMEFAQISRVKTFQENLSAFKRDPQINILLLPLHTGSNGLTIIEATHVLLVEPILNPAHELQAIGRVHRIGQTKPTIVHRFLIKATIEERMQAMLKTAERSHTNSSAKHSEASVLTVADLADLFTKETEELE
UniProt P12004: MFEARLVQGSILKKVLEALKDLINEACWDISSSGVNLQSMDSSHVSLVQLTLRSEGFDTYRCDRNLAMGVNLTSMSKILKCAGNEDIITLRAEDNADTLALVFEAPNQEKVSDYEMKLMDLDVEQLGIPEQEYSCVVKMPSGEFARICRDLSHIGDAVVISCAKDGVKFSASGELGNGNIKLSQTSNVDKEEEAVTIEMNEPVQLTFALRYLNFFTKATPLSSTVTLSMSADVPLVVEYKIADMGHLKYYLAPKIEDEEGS

Legend:
Test in all cases: co-IP; HEK293T cells transfected, treated with 50 uM MMS, intact cells gently cross-linked with 0.2% formaldehyde; extract incubated with anti-GFP antibody-coupled protein A paramagnetic beads in IP buffer (20 mM Hepes pH 7.9, 100 mM KCl) at 4 C overnight; cross-links reversed; blot for endogenous PCNA, normalised against total GFP pulled down
[1] = target: GFP-SHPRH (SNF2, histone-linker, PHD and RING finger domain-containing helicase, wild type) (human) (UniProt Q149N8)
[2] = target: GFP-SHPRH F1632A (APIM mutant) (human) (UniProt Q149N8)
[3] = target: T1, YFP-HLTF (helicase-like transcription factor, wild type) (human) (UniProt Q14527)
T1 sequence: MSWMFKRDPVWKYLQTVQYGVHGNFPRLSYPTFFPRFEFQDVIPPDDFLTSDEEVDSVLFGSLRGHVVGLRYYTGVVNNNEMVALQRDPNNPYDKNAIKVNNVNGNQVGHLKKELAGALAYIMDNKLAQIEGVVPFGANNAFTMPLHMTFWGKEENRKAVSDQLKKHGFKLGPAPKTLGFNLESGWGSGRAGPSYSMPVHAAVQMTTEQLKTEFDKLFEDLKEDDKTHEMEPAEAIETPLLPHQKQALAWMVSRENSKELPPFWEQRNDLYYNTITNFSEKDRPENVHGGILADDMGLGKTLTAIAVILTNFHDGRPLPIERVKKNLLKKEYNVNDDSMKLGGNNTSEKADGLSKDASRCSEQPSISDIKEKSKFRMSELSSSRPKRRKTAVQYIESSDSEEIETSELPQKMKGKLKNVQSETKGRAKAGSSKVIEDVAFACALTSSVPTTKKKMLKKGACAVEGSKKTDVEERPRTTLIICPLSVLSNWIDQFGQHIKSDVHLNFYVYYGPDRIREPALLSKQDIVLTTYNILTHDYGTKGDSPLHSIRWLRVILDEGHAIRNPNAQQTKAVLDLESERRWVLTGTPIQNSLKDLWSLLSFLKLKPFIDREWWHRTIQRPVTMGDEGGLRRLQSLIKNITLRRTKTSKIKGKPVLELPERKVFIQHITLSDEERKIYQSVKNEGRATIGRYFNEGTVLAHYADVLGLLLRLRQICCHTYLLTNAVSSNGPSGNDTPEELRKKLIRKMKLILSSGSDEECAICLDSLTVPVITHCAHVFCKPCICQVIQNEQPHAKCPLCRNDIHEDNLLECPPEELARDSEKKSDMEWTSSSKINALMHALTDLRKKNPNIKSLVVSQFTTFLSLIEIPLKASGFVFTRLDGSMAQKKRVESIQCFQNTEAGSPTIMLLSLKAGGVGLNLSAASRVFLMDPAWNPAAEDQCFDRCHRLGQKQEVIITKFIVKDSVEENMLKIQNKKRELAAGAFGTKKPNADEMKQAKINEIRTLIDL

[4] = target: T2, YFP-HLTF F960A (APIM mutant) (human) (UniProt Q14527)
T2 sequence: T1 sequence with F960A

Measured: binding

Proliferating cell nuclear antigen (PCNA), endogenous (from UniProt P12004 1-261)
binds: all assays above
